Source: patent US20160075653A1, “NEMATICIDAL N-(PHENYLCYCLOALKYL)CARBOXAMIDES AND N-(PHENYLCYCLOALKYL)THIOCARBOXAMIDES” (BAYER CROPSCIENCE AKTIENGESELLSCHAFT, priority 2013, published 2016)
Some of these results come from one statement about several compounds together.

Assays:
Cooperia curticei = Cooperia curticei test (COOPCU), larval mortality; type: in vivo; conditions: application rate 20 ppm, after 5 days
Method: Cooneria curtice—Test (COOPCU) Solvent: dimethyl sulfoxide
(§1) To produce a suitable preparation of active compound, 10 mg of active compound are dissolved in 0.5 ml solvent, and the concentrate is diluted with “Ringer's solution” to the desired concentration.
Approximately 40 nematode larvae (Cooperia curticei) are transferred into a test tube containing the compound solution.
After 5 days percentage of larval mortality is recorded. 100% efficacy means all larvae are killed; 0% efficacy means no larvae are killed.

Haemonchus contortus = Haemonchus contortus test (HAEMCO), larval mortality; type: in vivo; conditions: application rate 20 ppm, after 5 days
Method: Haemonchus contortus—Test (HAEMCO) Solvent: dimethyl sulfoxide
as §1
Approximately 40 larvae of the red stomach worm (Haemonchus contortus) are transferred into a test tube containing compound solution.
After 5 days percentage of larval mortality are recorded. 100% efficacy means all larvae are killed, 0% efficacy means no larvae are killed.

Row | SMILES | activity (larval mortality) (Cooperia curticei) | activity (larval mortality) (Haemonchus contortus)
1 | O=C(N[C@@H]1CC[C@@H]1c1cc(F)ccc1C(F)(F)F)c1ccccc1C(F)(F)F (relative stereo) [Compound 586] | 100% | 100%
2 | O=C(N[C@@H]1CC[C@@H]1c1cc(F)ccc1C(F)(F)F)c1ccccc1Br (relative stereo) [Compound 560] | 90% | 90%
3 | O=C(N[C@@H]1CC[C@@H]1c1ccc(F)cc1C(F)(F)F)c1ccccc1Cl (relative stereo) [Compound 509] | 100% | 100%
4 | O=C(N[C@@H]1CC[C@@H]1c1c(F)cccc1C(F)(F)F)c1cccnc1C(F)(F)F (relative stereo) [Compound 577] | 100% | 90%
5 | O=C(N[C@@H]1CC[C@@H]1c1ccc(F)cc1C(F)(F)F)c1ccccc1I (relative stereo) [Compound 503] | 100% | 100%
6 | O=C(N[C@@H]1CC[C@@H]1c1cccc(F)c1C(F)(F)F)c1ccccc1I (relative stereo) [Compound 599] | 100% | 100%
7 | O=C(N[C@@H]1CC[C@@H]1c1ccc(F)cc1C(F)(F)F)c1ccccc1C(F)(F)F (relative stereo) [Compound 495] | 100% | 100%
8 | O=C(N[C@@H]1CC[C@@H]1c1ccccc1C(F)(F)F)c1nccnc1Cl (relative stereo) [Compound 623] | 100% | 100%
9 | O=C(NC1CCC1c1ccccc1C(F)(F)F)c1ccccc1Cl (stereo not shown) [Compound 432] | 90% | 100%
10 | O=C(N[C@@H]1CC[C@@H]1c1c(F)cccc1C(F)(F)F)c1ncccc1Cl (relative stereo) [Compound 537] | 100% | 90%
11 | O=C(NC1CCC1c1ccc(Cl)cc1Cl)c1cccnc1C(F)(F)F (stereo not shown) [Compound 481] | 100% | 100%
12 | O=C(NC1CCC1c1ccc(F)cc1C(F)(F)F)c1sccc1I (stereo not shown) [Compound 520] | 100% | 100%
13 | O=C(NC1CC1c1ccc(Cl)cc1Cl)c1ccccc1C(F)(F)F (stereo not shown) [Compound 424] | 100% | 100%
14 | O=C(N[C@@H]1CC[C@@H]1c1cccc(F)c1C(F)(F)F)c1ccccc1C(F)(F)F (relative stereo) [Compound 589] | 100% | 100%
15 | O=C(N[C@@H]1CC[C@@H]1c1c(F)cccc1C(F)(F)F)c1ccccc1C(F)(F)F (relative stereo) [Compound 585] | 100% | 100%
16 | O=C(N[C@@H]1CC[C@@H]1c1ccc(F)cc1C(F)(F)F)c1c(F)cccc1F (relative stereo) [Compound 493] | 100% | 100%

Row | SMILES | activity (larval mortality) (Cooperia curticei) | activity (larval mortality) (Haemonchus contortus)
17 | O=C(N[C@@H]1CC[C@@H]1c1c(F)cccc1C(F)(F)F)c1ccccc1I (relative stereo) [Compound 542] | 100% | 100%
18 | O=C(N[C@@H]1C[C@@H]1c1ccc(Cl)cc1Cl)c1ccccc1[N+](=O)[O-] (relative stereo) [Compound 558] | 90% | 100%
19 | O=C(NC1CCC1c1ccc(F)cc1C(F)(F)F)c1ncccc1Cl (stereo not shown) [Compound 479] | 100% | 100%
20 | O=C(NC1CCC1c1ccc(Cl)cc1Cl)c1ccccc1Br (stereo not shown) [Compound 472] | 100% | 100%
21 | O=C(NC1CC1c1ccc(Cl)cc1)c1ccccc1I (stereo not shown) [Compound 273] | 80% | 90%
22 | O=C(N[C@@H]1C[C@@H]1c1ccc(Cl)cc1Cl)c1ccccc1I (relative stereo) [Compound 578] | 100% | 100%
23 | O=C(NC1CCC1c1ccccc1C(F)(F)F)c1ccccc1I (stereo not shown) [Compound 427] | 100% | 100%
24 | O=C(N[C@@H]1CC[C@@H]1c1c(F)cccc1C(F)(F)F)c1sccc1I (relative stereo) [Compound 584] | 100% | 100%
25 | O=C(N[C@@H]1CC[C@@H]1c1c(F)cccc1C(F)(F)F)c1cccnc1Cl (relative stereo) [Compound 575] | 90% | 90%
26 | O=C(N[C@@H]1CC[C@@H]1c1c(F)cccc1C(F)(F)F)c1ccccc1 (relative stereo) [Compound 551] | 80% | 80%
27 | O=C(N[C@@H]1CC[C@@H]1c1c(F)cccc1C(F)(F)F)c1ccccc1[N+](=O)[O-] (relative stereo) [Compound 561] | 100% | 100%
28 | O=C(N[C@@H]1CC[C@@H]1c1ccc(F)cc1C(F)(F)F)c1nccnc1Cl (relative stereo) [Compound 516] | 100% | 100%
29 | O=C(N[C@@H]1CCC[C@@H]1c1ccc(F)c(F)c1)c1ccsc1I (relative stereo) [Compound 56] | 90% | 80%
30 | O=C(N[C@@H]1CC[C@@H]1c1cc(F)ccc1C(F)(F)F)c1sccc1I (relative stereo) [Compound 570] | 100% | 100%
31 | Cc1ccccc1C(=O)NC1CC1c1ccc(Cl)cc1 (stereo not shown) [Compound 276] | 90% | 90%
32 | O=C(N[C@@H]1CC[C@@H]1c1c(F)cccc1C(F)(F)F)c1ccccc1Br (relative stereo) [Compound 563] | 100% | 100%
